According to the supplement of paper PMC10994270:
The other results are listed elsewhere or left out.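 Rule for the calls: active = probability of classifying as wild-type above 0.505; inactive = 0.505 or below.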 Most values come without repeats; read them as rough.

system: SORL1-/- neural progenitor cells (hiPSC WTSIi004-B derived); test: probability of classification as wild-type phenotype (neural network, relative to DMSO-treated WT vs SORL1-/- controls) (fraction); higher = more similar to wild-type morphology (phenotypic rescue); details: 300 nM; SORL1-/- sub-clone: WB8; 24 h

| Structure (SMILES) | probability |
| --- | --- |
| C=C1/C(=C\C=C2/CCC[C@]3(C)[C@@H]([C@H](C)CCCC(C)(C)O)CC[C@@H]23)C[C@@H](O)C[C@@H]1O [Calcitriol] | active: 0.805 |
| CC(=O)O[C@H]1C(=O)[C@@]2(C)[C@H]([C@H](OC(=O)c3ccccc3)[C@]3(O)C[C@H](OC(=O)[C@H](O)[C@@H](NC(=O)c4ccccc4)c4ccccc4)C(C)=C1C3(C)C)[C@]1(OC(C)=O)CO[C@@H]1C[C@@H]2O [Paclitaxel] | active: 0.649 |
| Cc1[nH]c2ccccc2c1CCNCc1ccc(/C=C/C(=O)NO)cc1 [Panobinostat] | active: 0.75 |
| Cc1cc(/C=C/c2ccc3cc(N(C)C)ccc3[n+]2C)c(C)n1-c1ccccc1.Cc1cc(/C=C/c2ccc3cc(N(C)C)ccc3[n+]2C)c(C)n1-c1ccccc1.O=C([O-])c1cc2ccccc2c(Cc2c(O)c(C(=O)[O-])cc3ccccc23)c1O [Pyrvinium pamoate] | active: 0.533 |
| CCC1=C[C@@H]2CN(C1)Cc1c([nH]c3ccccc13)[C@@](C(=O)OC)(c1cc3c(cc1OC)N(C)[C@H]1[C@@](O)(C(=O)OC)[C@H](OC(C)=O)[C@]4(CC)C=CCN5CC[C@]31[C@@H]54)C2.O=C(O)[C@H](O)[C@@H](O)C(=O)O.O=C(O)[C@H](O)[C@@H](O)C(=O)O [Vinorelbine Tartrate] | active: 0.622 |

same assay, conditions: 1000 nM; SORL1-/- sub-clone: WB8; 24 h

| Structure (SMILES) | probability |
| --- | --- |
| COc1cc2ncnc(Nc3ccc(F)c(Cl)c3)c2cc1NC(=O)/C=C/CN1CCCCC1 [Dacomitinib] | active: 0.527 |
| COc1cc2c(Oc3ccc4[nH]c(C)cc4c3F)ccnc2cc1OCC1(N)CC1 [Anlotinib] | active: 0.818 |
| COC(=O)N[C@@H](C)CNc1nccc(-c2cn(C(C)C)nc2-c2cc(Cl)cc(NS(C)(=O)=O)c2F)n1 [Encorafenib] | active: 0.755 |
| COC1=C(OC)C(=O)C(C/C=C(\C)CC/C=C(\C)CC/C=C(\C)CC/C=C(\C)CC/C=C(\C)CC/C=C(\C)CC/C=C(\C)CC/C=C(\C)CC/C=C(\C)CCC=C(C)C)=C(C)C1=O [Coenzyme Q10] | active: 0.637 |
| O=c1c(-c2ccc(O)cc2)coc2cc(O)cc(O)c12 [Genistein] | active: 0.538 |
